{"source": "patent EP0015584A2", "about": "“Nucleotides, methods for their preparation and medicaments” (Gauri, Kailash Kumar, Dr. Prof., priority 1979, dated 1980)", "tested_on": "resistente Herpesviren", "assay": "Local treatment of herpes keratitis produced with resistant strains", "type": "in vivo", "details": "Kaninchen, lokal, bis zu 7 mal täglich, bis zu 11 Tage; JDU-MP 0,1 bis 1 %, ÄDU-MP 0,1 bis 8 %, TFT-MP 0,1 bis 2 %, ARA-A-MP 0,2 bis 2 %, Acycloguanosin-Monophosphat 0,5 bis 5 %", "method": "Man züchtet Herpes-Viren in Gewebekulturen von menschlichen Fibroblastzellen über 1 bis 5 Passagen in Gegenwart von Nukleosiden, wie beispielsweise ÄDU (Äthyldesoxyuridin), Konzentration: 20 µg/ml, TFT (Trifluorthymidin) Konzentration 5 bis 10 µg/ml, ARA-A-MP (Arabinofuranosyladenin-Monophosphat),Konzentration 20 µg/ml, Acycloguanosin (ACG), Konzentration 5 bis 30 µg/ml, wobei der Saatvirus auf die Cornea der Tiere (Hamster, Kaninchen) durch Aufträufeln übertragen wird. Zwei Stunden nach der Übertragung erfolgt die Behandlung der Cornea lokal mit den entsprechenden Nukleosiden in den oben angegebenen Konzentrationen. Dabei zeigt sich, daß die Viren für die Nukleoside resistent werden. Die Bewertung der Infektion erfolgt durch Anfärben der Hornhaut mit Fluorescin-Na-Lösung (1 %) und anschließende Farbphotodokumentation.\nDie Behandlung der Herpes-Keratitis bei Kaninchen, erzeugt mit den resistenten Stämmen, erfolgt lokal mit folgenden Wirkstoffen: JDU-MP (Joddesoxyuridin-Monophosphat), Konzentration 0,1 bis 1 %, ÄDU-MP (Äthyldesoxyuridin-Monophosphat), Konzentration: 0,1 bis 8 %, TFT-MP (Trifluor- thymidin-Monophosphat), Konzentration: 0,1 bis 2 %, ARA-A-MP (Arabinofuranosyladenin-Monophosphat), Konzentration: 0,2 bis 2 %, Acycloguanosin-Monophosphat, Konzentration: 0,5 bis 5 %, bis zu 7 mal täglich für die Dauer von bis zu 11 Tagen.", "note": "For at least one compound, name, drawing or mass did not settle the structure."}
{"smiles": "Nc1ncnc2c1ncn2[C@@H]1O[C@H](COP(=O)(O)O)[C@@H](O)[C@@H]1O", "note": "[ARA-A-MP, Arabinofuranosyladenin-Monophosphat]", "values": [{"measurement": "Bekämpfung der durch resistente Herpesviren verursachten Infektion (Herpes-Keratitis)", "value": "wirksam bekämpfen"}]}
